Measurements: publication PMC5577505

The chains behind the UniProt entries cited, without tags or fusion partners.
UniProt O00571: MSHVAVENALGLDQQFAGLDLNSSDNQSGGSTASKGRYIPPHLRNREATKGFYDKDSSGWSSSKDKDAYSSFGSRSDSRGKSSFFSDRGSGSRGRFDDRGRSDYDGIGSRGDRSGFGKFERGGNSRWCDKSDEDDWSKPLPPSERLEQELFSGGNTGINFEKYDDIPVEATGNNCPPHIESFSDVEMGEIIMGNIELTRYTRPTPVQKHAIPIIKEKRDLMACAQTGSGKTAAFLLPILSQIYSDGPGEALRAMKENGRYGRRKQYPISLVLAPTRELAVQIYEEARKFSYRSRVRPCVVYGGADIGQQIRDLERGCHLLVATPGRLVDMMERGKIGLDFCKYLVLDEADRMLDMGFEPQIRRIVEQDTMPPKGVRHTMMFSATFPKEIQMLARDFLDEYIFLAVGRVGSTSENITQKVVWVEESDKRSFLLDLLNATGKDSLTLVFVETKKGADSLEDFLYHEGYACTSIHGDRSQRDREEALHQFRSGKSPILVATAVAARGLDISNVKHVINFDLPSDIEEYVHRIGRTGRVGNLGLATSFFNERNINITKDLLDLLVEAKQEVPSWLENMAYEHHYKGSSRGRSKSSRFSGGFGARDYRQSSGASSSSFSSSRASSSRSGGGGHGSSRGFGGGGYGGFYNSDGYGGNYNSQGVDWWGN
UniProt P11940: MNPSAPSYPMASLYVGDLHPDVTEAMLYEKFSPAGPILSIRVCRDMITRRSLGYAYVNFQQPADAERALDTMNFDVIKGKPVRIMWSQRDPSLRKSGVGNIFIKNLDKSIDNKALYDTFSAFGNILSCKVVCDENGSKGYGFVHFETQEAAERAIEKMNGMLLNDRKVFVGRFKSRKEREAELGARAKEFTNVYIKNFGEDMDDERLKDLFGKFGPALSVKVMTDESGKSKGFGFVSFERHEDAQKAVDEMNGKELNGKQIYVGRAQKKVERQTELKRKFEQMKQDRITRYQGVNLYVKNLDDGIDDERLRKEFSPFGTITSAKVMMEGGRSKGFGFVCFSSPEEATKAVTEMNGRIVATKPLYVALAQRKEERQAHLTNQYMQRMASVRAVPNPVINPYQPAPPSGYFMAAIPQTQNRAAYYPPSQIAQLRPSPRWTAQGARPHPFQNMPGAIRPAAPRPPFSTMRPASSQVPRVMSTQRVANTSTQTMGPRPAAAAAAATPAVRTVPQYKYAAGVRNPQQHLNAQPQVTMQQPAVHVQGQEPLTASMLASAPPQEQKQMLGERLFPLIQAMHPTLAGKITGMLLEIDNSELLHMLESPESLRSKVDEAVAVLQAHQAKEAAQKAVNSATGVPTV

Target: HA-tagged DDX3X (UniProt O00571)
Experiment: affinity purification with mass spectrometry; HA-DDX3X precipitated with anti-HA-Agarose from extracts (500 µg protein) of spreading MRC5 cells, 2 h at 4°C; resin-only control; trypsin digest, dimethyl labelling, LC-MS; enriched two-fold or more

binding: binds
Substance: poly(A)-binding protein 1 (from UniProt P11940 1-636)

These are yes or no findings as the source states them, for the method shown. In cells and extracts the contact can be indirect. A yes stands for co-enrichment or nearness to the bait. Other partners may have been found.
